Measured values as given in doi:10.1101/2025.09.09.675182.

Protein sequences, listed by entry. Tags and fused reporters are not part of them.
UniProt O95347: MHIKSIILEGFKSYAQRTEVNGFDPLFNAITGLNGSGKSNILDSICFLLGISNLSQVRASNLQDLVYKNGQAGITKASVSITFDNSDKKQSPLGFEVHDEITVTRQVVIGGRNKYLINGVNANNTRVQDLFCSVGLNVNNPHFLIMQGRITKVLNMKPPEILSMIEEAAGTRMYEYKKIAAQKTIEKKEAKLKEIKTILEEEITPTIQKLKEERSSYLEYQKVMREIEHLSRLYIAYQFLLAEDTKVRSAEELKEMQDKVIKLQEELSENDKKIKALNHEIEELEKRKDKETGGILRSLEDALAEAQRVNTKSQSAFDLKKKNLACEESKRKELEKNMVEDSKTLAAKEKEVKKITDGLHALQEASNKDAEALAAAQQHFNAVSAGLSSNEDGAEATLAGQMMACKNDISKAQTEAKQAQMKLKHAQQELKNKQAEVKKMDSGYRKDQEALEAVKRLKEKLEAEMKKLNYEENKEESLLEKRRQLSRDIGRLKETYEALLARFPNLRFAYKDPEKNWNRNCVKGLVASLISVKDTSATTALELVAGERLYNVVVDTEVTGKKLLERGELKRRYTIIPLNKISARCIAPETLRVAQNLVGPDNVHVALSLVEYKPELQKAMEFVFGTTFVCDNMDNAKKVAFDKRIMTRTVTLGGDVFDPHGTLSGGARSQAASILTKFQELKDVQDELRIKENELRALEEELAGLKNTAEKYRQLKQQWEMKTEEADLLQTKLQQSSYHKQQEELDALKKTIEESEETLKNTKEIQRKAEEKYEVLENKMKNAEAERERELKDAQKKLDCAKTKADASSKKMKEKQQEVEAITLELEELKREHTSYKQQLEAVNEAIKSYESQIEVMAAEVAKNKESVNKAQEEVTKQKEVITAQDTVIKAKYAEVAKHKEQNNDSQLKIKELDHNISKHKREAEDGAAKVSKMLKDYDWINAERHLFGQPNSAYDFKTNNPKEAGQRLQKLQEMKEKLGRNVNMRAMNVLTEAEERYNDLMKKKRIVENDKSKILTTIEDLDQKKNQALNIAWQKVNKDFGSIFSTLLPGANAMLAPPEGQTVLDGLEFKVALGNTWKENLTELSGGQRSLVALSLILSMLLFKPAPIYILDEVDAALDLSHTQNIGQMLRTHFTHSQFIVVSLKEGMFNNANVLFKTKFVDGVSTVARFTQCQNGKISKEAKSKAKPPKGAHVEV
UniProt P40222: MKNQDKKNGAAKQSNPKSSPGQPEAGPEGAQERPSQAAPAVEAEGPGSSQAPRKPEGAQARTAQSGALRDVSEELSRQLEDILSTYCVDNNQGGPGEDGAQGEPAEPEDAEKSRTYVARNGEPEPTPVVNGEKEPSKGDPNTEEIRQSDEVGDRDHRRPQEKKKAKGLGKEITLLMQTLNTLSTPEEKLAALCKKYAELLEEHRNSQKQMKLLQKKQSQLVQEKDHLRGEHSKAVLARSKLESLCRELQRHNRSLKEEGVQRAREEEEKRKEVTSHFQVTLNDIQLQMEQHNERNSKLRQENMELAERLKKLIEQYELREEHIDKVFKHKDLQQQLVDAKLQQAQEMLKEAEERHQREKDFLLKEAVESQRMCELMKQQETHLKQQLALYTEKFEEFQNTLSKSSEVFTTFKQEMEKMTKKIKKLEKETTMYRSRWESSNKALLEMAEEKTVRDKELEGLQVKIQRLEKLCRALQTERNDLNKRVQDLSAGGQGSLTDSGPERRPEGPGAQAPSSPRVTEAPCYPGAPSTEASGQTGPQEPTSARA
UniProt Q9NTJ3: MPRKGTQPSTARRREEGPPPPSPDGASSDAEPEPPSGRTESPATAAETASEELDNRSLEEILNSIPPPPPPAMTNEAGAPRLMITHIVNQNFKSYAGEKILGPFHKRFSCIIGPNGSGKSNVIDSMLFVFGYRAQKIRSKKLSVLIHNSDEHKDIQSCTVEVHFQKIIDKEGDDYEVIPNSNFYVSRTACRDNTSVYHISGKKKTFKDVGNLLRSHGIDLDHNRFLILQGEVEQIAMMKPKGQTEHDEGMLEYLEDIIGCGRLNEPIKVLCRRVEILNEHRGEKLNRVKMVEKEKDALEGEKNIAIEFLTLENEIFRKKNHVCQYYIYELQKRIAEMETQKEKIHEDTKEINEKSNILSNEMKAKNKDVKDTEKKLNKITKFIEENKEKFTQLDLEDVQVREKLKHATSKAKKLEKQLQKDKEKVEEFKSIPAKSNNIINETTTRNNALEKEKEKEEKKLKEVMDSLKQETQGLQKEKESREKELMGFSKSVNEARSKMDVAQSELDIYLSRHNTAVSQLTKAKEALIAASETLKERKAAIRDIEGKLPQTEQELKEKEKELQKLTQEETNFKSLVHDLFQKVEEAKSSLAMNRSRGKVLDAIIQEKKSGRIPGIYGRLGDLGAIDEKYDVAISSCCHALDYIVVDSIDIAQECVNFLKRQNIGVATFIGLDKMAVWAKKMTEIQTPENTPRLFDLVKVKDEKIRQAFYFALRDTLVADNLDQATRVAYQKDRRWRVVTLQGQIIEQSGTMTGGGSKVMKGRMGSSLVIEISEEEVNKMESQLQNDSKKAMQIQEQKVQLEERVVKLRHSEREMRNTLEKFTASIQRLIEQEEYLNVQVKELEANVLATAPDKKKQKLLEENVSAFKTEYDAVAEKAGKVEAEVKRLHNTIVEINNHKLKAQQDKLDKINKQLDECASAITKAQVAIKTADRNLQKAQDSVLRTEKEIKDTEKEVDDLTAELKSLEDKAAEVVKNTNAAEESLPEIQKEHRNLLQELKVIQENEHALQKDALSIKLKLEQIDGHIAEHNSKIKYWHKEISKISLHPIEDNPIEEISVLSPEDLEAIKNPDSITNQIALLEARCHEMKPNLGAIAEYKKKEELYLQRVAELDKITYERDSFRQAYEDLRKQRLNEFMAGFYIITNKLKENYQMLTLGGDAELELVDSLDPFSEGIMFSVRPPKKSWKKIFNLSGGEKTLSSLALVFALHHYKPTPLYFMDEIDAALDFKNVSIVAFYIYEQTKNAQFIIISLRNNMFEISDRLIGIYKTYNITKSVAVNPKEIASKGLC
UniProt P46013: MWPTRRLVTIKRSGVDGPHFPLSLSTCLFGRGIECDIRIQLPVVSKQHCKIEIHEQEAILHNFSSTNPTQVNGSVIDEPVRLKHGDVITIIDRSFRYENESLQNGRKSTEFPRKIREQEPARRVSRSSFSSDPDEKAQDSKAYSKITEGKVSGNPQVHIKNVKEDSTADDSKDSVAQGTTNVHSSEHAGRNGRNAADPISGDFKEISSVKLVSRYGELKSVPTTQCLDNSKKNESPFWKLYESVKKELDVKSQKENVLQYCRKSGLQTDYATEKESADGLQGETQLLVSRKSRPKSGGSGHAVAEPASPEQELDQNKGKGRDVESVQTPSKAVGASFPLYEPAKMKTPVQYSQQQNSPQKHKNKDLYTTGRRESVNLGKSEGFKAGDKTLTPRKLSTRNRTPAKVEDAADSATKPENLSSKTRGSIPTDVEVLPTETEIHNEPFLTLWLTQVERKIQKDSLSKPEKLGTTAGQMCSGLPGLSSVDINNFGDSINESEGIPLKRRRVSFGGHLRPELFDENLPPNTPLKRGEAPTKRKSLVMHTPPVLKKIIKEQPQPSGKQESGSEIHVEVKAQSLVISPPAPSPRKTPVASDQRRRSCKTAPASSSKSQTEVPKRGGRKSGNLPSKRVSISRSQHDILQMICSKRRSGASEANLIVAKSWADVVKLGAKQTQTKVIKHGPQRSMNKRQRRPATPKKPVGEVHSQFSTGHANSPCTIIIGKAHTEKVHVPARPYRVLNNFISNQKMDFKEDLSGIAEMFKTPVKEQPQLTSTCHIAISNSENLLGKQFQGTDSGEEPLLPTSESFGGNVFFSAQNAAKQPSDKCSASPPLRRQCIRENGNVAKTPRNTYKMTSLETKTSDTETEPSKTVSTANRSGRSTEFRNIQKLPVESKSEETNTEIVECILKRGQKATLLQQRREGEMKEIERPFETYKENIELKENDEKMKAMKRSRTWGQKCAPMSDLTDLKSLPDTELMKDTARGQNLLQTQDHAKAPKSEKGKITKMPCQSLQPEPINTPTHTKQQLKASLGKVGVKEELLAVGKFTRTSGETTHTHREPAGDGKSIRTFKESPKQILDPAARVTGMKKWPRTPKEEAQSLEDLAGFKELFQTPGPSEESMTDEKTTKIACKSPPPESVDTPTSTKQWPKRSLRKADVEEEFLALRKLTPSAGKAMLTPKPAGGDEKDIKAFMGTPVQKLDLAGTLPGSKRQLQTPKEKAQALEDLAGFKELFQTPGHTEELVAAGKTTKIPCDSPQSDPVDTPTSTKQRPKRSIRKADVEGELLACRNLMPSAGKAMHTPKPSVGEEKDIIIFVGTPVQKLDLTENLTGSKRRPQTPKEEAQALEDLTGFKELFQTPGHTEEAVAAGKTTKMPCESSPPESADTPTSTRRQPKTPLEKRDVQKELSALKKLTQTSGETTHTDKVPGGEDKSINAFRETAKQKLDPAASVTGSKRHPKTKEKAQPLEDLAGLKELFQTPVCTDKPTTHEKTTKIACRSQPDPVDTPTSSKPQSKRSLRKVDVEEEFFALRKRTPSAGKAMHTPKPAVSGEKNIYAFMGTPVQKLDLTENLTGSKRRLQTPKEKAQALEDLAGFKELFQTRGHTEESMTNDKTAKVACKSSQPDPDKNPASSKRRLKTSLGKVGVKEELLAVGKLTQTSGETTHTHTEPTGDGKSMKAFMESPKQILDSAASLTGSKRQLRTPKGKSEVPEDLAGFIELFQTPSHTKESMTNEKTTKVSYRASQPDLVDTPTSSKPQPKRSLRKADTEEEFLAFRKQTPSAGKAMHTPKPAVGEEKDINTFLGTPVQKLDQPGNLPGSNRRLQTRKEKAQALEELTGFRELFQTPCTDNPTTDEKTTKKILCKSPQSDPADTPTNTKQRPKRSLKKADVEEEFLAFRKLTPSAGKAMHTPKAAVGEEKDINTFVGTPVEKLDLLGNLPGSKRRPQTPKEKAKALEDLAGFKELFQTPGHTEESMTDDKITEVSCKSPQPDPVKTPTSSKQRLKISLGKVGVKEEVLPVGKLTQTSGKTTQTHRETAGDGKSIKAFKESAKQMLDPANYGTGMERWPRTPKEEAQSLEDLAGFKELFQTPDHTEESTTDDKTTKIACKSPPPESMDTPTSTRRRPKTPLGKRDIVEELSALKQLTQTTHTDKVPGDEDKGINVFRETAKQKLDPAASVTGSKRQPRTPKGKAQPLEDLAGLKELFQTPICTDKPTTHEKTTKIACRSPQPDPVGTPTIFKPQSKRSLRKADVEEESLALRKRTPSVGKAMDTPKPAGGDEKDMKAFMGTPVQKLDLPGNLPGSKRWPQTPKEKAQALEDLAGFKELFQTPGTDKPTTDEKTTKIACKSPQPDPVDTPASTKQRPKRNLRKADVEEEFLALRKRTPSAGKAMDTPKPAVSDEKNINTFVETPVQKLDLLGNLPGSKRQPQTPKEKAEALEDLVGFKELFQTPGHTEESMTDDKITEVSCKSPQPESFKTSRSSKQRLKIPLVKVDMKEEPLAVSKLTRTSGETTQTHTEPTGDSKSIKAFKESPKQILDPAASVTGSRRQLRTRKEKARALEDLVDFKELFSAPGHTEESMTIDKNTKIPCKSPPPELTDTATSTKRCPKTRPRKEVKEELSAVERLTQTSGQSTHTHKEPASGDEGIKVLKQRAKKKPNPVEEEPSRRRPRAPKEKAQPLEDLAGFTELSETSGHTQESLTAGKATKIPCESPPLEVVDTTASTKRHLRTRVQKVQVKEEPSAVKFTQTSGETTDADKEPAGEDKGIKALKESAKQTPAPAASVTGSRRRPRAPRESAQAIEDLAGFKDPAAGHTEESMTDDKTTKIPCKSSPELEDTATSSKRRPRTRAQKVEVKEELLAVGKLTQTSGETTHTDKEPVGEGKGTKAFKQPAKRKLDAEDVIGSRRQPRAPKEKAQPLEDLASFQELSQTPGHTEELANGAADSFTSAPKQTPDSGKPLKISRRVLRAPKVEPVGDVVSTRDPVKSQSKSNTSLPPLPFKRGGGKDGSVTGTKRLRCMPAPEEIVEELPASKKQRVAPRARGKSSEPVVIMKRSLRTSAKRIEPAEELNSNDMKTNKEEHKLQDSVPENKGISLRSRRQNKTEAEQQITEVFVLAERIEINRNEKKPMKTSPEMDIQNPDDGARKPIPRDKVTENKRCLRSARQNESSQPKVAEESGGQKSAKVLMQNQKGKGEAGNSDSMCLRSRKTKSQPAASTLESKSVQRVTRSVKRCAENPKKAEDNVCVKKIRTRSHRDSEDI

T1: Cytoskeleton Associated Protein-2 (CKAP2) (human (endogenous in RPE1)) (UniProt Q8WWK9)
T1 sequence: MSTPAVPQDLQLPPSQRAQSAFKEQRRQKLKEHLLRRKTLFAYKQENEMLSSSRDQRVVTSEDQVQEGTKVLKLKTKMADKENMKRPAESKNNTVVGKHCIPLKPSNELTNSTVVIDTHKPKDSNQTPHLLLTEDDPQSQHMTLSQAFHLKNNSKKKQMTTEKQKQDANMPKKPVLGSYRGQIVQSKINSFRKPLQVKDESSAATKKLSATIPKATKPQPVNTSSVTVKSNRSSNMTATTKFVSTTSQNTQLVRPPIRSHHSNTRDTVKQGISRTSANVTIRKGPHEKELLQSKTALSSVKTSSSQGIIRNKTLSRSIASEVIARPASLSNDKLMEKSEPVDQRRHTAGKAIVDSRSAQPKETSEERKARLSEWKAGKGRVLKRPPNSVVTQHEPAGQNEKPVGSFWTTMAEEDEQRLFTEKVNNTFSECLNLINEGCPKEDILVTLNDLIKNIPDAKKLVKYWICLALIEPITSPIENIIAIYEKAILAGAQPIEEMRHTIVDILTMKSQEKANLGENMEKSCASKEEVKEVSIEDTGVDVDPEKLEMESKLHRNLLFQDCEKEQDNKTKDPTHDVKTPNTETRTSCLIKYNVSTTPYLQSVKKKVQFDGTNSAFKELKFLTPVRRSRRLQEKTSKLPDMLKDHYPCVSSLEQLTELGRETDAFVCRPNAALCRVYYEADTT


target: T1, Cytoskeleton Associated Protein-2 (CKAP2) (human (endogenous in RPE1)); assay: affinity purification with mass spectrometry

binding | Molecule
binds | NCAPH (from UniProt Q15003 1-741)
binds | KIF2A (from UniProt O00139 1-706)
binds | NCAPD2 (from UniProt Q15021 1-1401)
binds | SMC2 (from UniProt O95347 1-1197)
binds | TXLNA (from UniProt P40222 1-546)
binds | KIF20A (from UniProt O95235 1-890)
binds | TPX2 (from UniProt Q9ULW0 1-747)
binds | MACROH2A1 (from UniProt O75367 1-369)
binds | SMC4 (from UniProt Q9NTJ3 1-1288)
binds | KI67 (from UniProt P46013 1-3256)
binds | KIF23 (protein, UniProt Q02241 1-960) MKSARAKTPRKPTVKKGSQTNLKDPVGVYCRVRPLGFPDQECCIEVINNTTVQLHTPEGYRLNRNGDYKETQYSFKQVFGTHTTQKELFDVVANPLVNDLIHGKNGLLFTYGVTGSGKTHTMTGSPGEGGLLPRCLDMIFNSIGSFQAKRYVFKSNDRNSMDIQCEVDALLERQKREAMPNPKTSSSKRQVDPEFADMITVQEFCKAEEVDEDSVYGVFVSYIEIYNNYIYDLLEEVPFDPIKPKPPQSKLLREDKNHNMYVAGCTEVEVKSTEEAFEVFWRGQKKRRIANTHLNRESSRSHSVFNIKLVQAPLDADGDNVLQEKEQITISQLSLVDLAGSERTNRTRAEGNRLREAGNINQSLMTLRTCMDVLRENQMYGTNKMVPYRDSKLTHLFKNYFDGEGKVRMIVCVNPKAEDYEENLQVMRFAEVTQEVEVARPVDKAICGLTPGRRYRNQPRGPVGNEPLVTDVVLQSFPPLPSCEILDINDEQTLPRLIEALEKRHNLRQMMIDEFNKQSNAFKALLQEFDNAVLSKENHMQGKLNEKEKMISGQKLEIERLEKKNKTLEYKIEILEKTTTIYEEDKRNLQQELETQNQKLQRQFSDKRRLEARLQGMVTETTMKWEKECERRVAAKQLEMQNKLWVKDEKLKQLKAIVTEPKTEKPERPSRERDREKVTQRSVSPSPVPLSSNYIAQISNGQQLMSQPQLHRRSNSCSSISVASCISEWEQKIPTYNTPLKVTSIARRRQQEPGQSKTCIVSDRRRGMYWTEGREVVPTFRNEIEIEEDHCGRLLFQPDQNAPPIRLRHRRSRSAGDRWVDHKPASNMQTETVMQPHVPHAITVSVANEKALAKCEKYMLTHQELASDGEIETKLIKGDIYKTRGGGQSVQFTDIETLKQESPNGSRKRRSSTVAPAQPDGAESEWTDVETRCSVAVEMRAGSQLGPGYQHHAQPKRKKP
binds | CPSF1 (protein, UniProt Q10570 1-1443) MYAVYKQAHPPTGLEFSMYCNFFNNSERNLVVAGTSQLYVYRLNRDAEALTKNDRSTEGKAHREKLELAASFSFFGNVMSMASVQLAGAKRDALLLSFKDAKLSVVEYDPGTHDLKTLSLHYFEEPELRDGFVQNVHTPRVRVDPDGRCAAMLVYGTRLVVLPFRRESLAEEHEGLVGEGQRSSFLPSYIIDVRALDEKLLNIIDLQFLHGYYEPTLLILFEPNQTWPGRVAVRQDTCSIVAISLNITQKVHPVIWSLTSLPFDCTQALAVPKPIGGVVVFAVNSLLYLNQSVPPYGVALNSLTTGTTAFPLRTQEGVRITLDCAQATFISYDKMVISLKGGEIYVLTLITDGMRSVRAFHFDKAAASVLTTSMVTMEPGYLFLGSRLGNSLLLKYTEKLQEPPASAVREAADKEEPPSKKKRVDATAGWSAAGKSVPQDEVDEIEVYGSEAQSGTQLATYSFEVCDSILNIGPCANAAVGEPAFLSEEFQNSPEPDLEIVVCSGHGKNGALSVLQKSIRPQVVTTFELPGCYDMWTVIAPVRKEEEDNPKGEGTEQEPSTTPEADDDGRRHGFLILSREDSTMILQTGQEIMELDTSGFATQGPTVFAGNIGDNRYIVQVSPLGIRLLEGVNQLHFIPVDLGAPIVQCAVADPYVVIMSAEGHVTMFLLKSDSYGGRHHRLALHKPPLHHQSKVITLCLYRDLSGMFTTESRLGGARDELGGRSGPEAEGLGSETSPTVDDEEEMLYGDSGSLFSPSKEEARRSSQPPADRDPAPFRAEPTHWCLLVRENGTMEIYQLPDWRLVFLVKNFPVGQRVLVDSSFGQPTTQGEARREEATRQGELPLVKEVLLVALGSRQSRPYLLVHVDQELLIYEAFPHDSQLGQGNLKVRFKKVPHNINFREKKPKPSKKKAEGGGAEEGAGARGRVARFRYFEDIYGYSGVFICGPSPHWLLVTGRGALRLHPMAIDGPVDSFAPFHNVNCPRGFLYFNRQGELRISVLPAYLSYDAPWPVRKIPLRCTAHYVAYHVESKVYAVATSTNTPCARIPRMTGEEKEFETIERDERYIHPQQEAFSIQLISPVSWEAIPNARIELQEWEHVTCMKTVSLRSEETVSGLKGYVAAGTCLMQGEEVTCRGRILIMDVIEVVPEPGQPLTKNKFKVLYEKEQKGPVTALCHCNGHLVSAIGQKIFLWSLRASELTGMAFIDTQLYIHQMISVKNFILAADVMKSISLLRYQEESKTLSLVSRDAKPLEVYSVDFMVDNAQLGFLVSDRDRNLMVYMYLPEAKESFGGMRLLRRADFHVGAHVNTFWRTPCRGATEGLSKKSVVWENKHITWFATLDGGIGLLLPMQEKTYRRLLMLQNALTTMLPHHAGLNPRAFRMLHVDRRTLQNAVRNVLDGELLNRYLYLSTMERSELAKKIGTTPDIILDDLLETDRVTAHF

Results are given in words; binding and its absence hold for the method and conditions named. In cells and extracts the contact can be indirect. These calls come from enrichment with a bait or labelling near it, and not all partners need be listed.
